From PubChem BioAssay AID493014 (National Center for Advancing Translational Sciences (NCATS), 2011)
The other results are listed elsewhere or left out. Shown are side measurements of this screen, not its main read-out; they come without a call. Compounds called inactive in the main read-out are mostly missing here. Potencies come from curve fits of mixed quality, noted in brackets.

Assay: qHTS Assay to Find Inhibitors of Chronic Active B-Cell Receptor Signaling
Conditions: ABC-DLBCL IkBa-CBG/CBR reporter, luminescence ratio (green luciferase fused to IkBa over red control in TMD8 lymphoma cells), 4 h
How it was run: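 Doxycycline induced both beetle luciferases in TMD8 lymphoma cells; IKK-driven degradation limits the IkappaBalpha-fused green signal, while red luminescence normalises for cell number and nonspecific effects. Compounds tested up to 46 uM, 4 hrs.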

[1] = measured here: CBR red luminescence, cell number
[2] = measured here: IkBa-CBG green luminescence

Row | Structure (SMILES) | AC50 [1] | AC50 [2]
1 | CCOc1ccc(N2C(=O)CS/C2=N/NC(=O)COc2ccc3ccccc3c2)cc1 | 3.98 µM [rising, full curve] | 
2 | Cc1ccc2sc(NC(=O)c3cccc(N4C(=O)CCC4=O)c3)nc2c1C | 0.501 µM [falling, full curve, poor fit] | 
3 | COc1ccccc1NC(=O)c1c(N=Cc2cccc([N+](=O)[O-])c2)cnn1C | 3.55 µM [rising, full curve] | 
4 | COc1ccc(NS(=O)(=O)c2cc(NC(=O)CCNC(C)=O)ccc2N2CCCCC2)cc1 | 29.1 µM [rising, single point] | 
5 | COc1ccc2c(c1)[C@H]1[C@H](CO2)[C@H](c2ccccc2)[C@]2(C)C(=O)Nc3ccccc3C(=O)N12 | 6.51 µM [falling, partial curve] | 7.31 µM [rising, partial curve, poor fit]
6 | Cc1ccc(Oc2ncc(CN3CCOCC3)s2)cc1 | 22.4 µM [rising, single point] | 
7 | COC(=O)c1cc(Br)ccc1-c1ccc(/C=N/n2nnnc2N)o1 | 1.84 µM [falling, partial curve, poor fit] | 
8 | CC1=C(C(=O)Nc2ccccn2)C(c2ccc(F)cc2)n2ncnc2N1 (configuration not stated) | 11.2 µM [falling, partial curve, poor fit] | 
9 | CCOc1ccc(C(=O)NC(=S)Nc2ccc(N3CCC(C)CC3)cc2)cc1[N+](=O)[O-] | 7.31 µM [rising, partial curve, poor fit] | 
10 | CC(=O)N/C(N)=N/c1nc2cc([N+](=O)[O-])ccc2o1 | 2.82 µM [rising, single point] | 
11 | COc1cccc(NC(=O)Nc2ccc3c(c2)nc(C)n3C)c1 | 7.08 µM [falling, partial curve] | 
12 | O=C(CCc1nc(-c2ccccc2)no1)NCc1cccnc1 | 20.6 µM [rising, partial curve, poor fit] | 
13 | Cc1cc(=O)[nH]c(N/N=C/c2ccc3c(c2)OCCO3)n1 | 8.91 µM [falling, partial curve] | 
14 | O=C1c2[nH]nc(-c3ccccc3O)c2C(c2ccc(F)cc2)N1CC1CCCO1 (configuration not stated) | 18.4 µM [falling, partial curve, poor fit] | 
15 | CSC1=NCCN1S(=O)(=O)c1ccc(F)cc1 | 6.31 µM [falling, partial curve, poor fit] | 
16 | N#CC1=C(N)n2c(s/c(=C\c3cccs3)c2=O)=C(C#N)C1c1cccs1 (configuration not stated) | 0.116 µM [falling, full curve, poor fit] | 
17 | CCOc1ccc(S(=O)(=O)NCCC(=O)NCCc2ccc(OCC)c(OCC)c2)cc1 | 14.6 µM [rising, partial curve, poor fit] | 
18 | COc1cc(/C=C2\N=C3CCCCCN3C2=O)ccc1O | 4.61 µM [falling, full curve, poor fit] | 
19 | Cc1ccccc1C(=O)N/N=C/c1ccc(OCC(=O)N2CCCCC2)cc1 | 2.82 µM [falling, full curve] | 
20 | CCOc1ccc(-c2nnn(CC(=O)Nc3cccc(OC)c3)n2)cc1OCC |  | 20.6 µM [falling, single point]
21 | N#CC1=C(N)Oc2n[nH]c(-c3ccccn3)c2C1c1c(F)cccc1Cl (configuration not stated) | 29.1 µM [falling, single point] | 

A second format for part of the listing above:
Row	Structure (SMILES)	AC50 [1]	AC50 [2]
3	COc1ccccc1NC(=O)c1c(N=Cc2cccc([N+](=O)[O-])c2)cnn1C	3.55 µM [rising, full curve]	
4	COc1ccc(NS(=O)(=O)c2cc(NC(=O)CCNC(C)=O)ccc2N2CCCCC2)cc1	29.1 µM [rising, single point]	
5	COc1ccc2c(c1)[C@H]1[C@H](CO2)[C@H](c2ccccc2)[C@]2(C)C(=O)Nc3ccccc3C(=O)N12	6.51 µM [falling, partial curve]	7.31 µM [rising, partial curve, poor fit]
6	Cc1ccc(Oc2ncc(CN3CCOCC3)s2)cc1	22.4 µM [rising, single point]	
7	COC(=O)c1cc(Br)ccc1-c1ccc(/C=N/n2nnnc2N)o1	1.84 µM [falling, partial curve, poor fit]	
8	CC1=C(C(=O)Nc2ccccn2)C(c2ccc(F)cc2)n2ncnc2N1 (configuration not stated)	11.2 µM [falling, partial curve, poor fit]	
9	CCOc1ccc(C(=O)NC(=S)Nc2ccc(N3CCC(C)CC3)cc2)cc1[N+](=O)[O-]	7.31 µM [rising, partial curve, poor fit]	
10	CC(=O)N/C(N)=N/c1nc2cc([N+](=O)[O-])ccc2o1	2.82 µM [rising, single point]	
11	COc1cccc(NC(=O)Nc2ccc3c(c2)nc(C)n3C)c1	7.08 µM [falling, partial curve]	
12	O=C(CCc1nc(-c2ccccc2)no1)NCc1cccnc1	20.6 µM [rising, partial curve, poor fit]	
13	Cc1cc(=O)[nH]c(N/N=C/c2ccc3c(c2)OCCO3)n1	8.91 µM [falling, partial curve]	
14	O=C1c2[nH]nc(-c3ccccc3O)c2C(c2ccc(F)cc2)N1CC1CCCO1 (configuration not stated)	18.4 µM [falling, partial curve, poor fit]	
15	CSC1=NCCN1S(=O)(=O)c1ccc(F)cc1	6.31 µM [falling, partial curve, poor fit]	
16	N#CC1=C(N)n2c(s/c(=C\c3cccs3)c2=O)=C(C#N)C1c1cccs1 (configuration not stated)	0.116 µM [falling, full curve, poor fit]	
17	CCOc1ccc(S(=O)(=O)NCCC(=O)NCCc2ccc(OCC)c(OCC)c2)cc1	14.6 µM [rising, partial curve, poor fit]	
18	COc1cc(/C=C2\N=C3CCCCCN3C2=O)ccc1O	4.61 µM [falling, full curve, poor fit]	
19	Cc1ccccc1C(=O)N/N=C/c1ccc(OCC(=O)N2CCCCC2)cc1	2.82 µM [falling, full curve]	
20	CCOc1ccc(-c2nnn(CC(=O)Nc3cccc(OC)c3)n2)cc1OCC		20.6 µM [falling, single point]

Following part.

Row | Structure (SMILES) | AC50 [1] | AC50 [2]
22 | Cc1nc2ccc(NC(=O)CCS(=O)(=O)c3ccc(Cl)cc3)cc2s1 | 6.51 µM [rising, single point] | 
23 | Cc1nn(CCC(=O)O)c(C)c1C | 29.1 µM [rising, single point] | 
24 | O=C(NCc1ccccc1Cl)c1cccc(NC(=O)c2ccccc2)c1 | 29.1 µM [falling, single point] | 
25 | COc1cnc(-c2ccccn2)nc1Sc1ccccc1 | 25.1 µM [falling, single point] | 
26 | COC(=O)C(CC(=O)O)NCc1ccco1 (configuration not stated) | 12.6 µM [rising, single point] | 
27 | CSc1cccc(NC(=O)/C=C/c2ccc(Cl)cc2)c1 | 17.8 µM [falling, partial curve, poor fit] | 
28 | COc1ccc(C(=O)CSc2nnc(-c3cccs3)n2-c2ccccc2)cc1 | 29.1 µM [rising, single point] | 
29 | CCOC(=O)/C(C#N)=C/c1cc2ccc(C)cc2nc1Cl |  | 29.1 µM [falling, single point]
30 | Cc1ccc(NC(=O)c2ccco2)c([N+](=O)[O-])c1 | 3.16 µM [rising, partial curve] | 12.6 µM [falling, partial curve]
31 | O=C(NC(=S)Nc1cccnc1Cl)c1ccc(F)cc1 | 7.08 µM [falling, partial curve] | 
32 | Cc1nonc1NC(=O)c1oc2ccc(F)cc2c1C | 0.631 µM [rising, full curve, poor fit] | 
33 | Fc1ccc(NC(=S)Nc2ccc(F)c(Cl)c2)cc1Cl | 29.1 µM [falling, single point] | 
34 | CCOc1cc(-c2nnc(SCC(=O)NCCCOC)nc2-c2ccc(OC)c(OCC)c2)ccc1OC | 2.24 µM [rising, full curve, poor fit] | 
35 | N#Cc1nc(-c2ccc(Cl)cc2)oc1NCCc1ccccn1 | 29.1 µM [rising, single point] | 
36 | CCOC(=O)c1cc2c(=O)n3ccccc3nc2n(Cc2ccco2)c1=NC(=O)c1ccc(OC)cc1OC | 15.8 µM [falling, partial curve, poor fit] | 
37 | Cc1cccc(C)c1OCC(=O)Nc1ccc(NC(=O)c2ccco2)cc1 | 12.6 µM [rising, single point] | 
38 | O=C(Nc1ccncc1)c1ccc(Cl)c(Cl)c1 | 3.16 µM [rising, full curve, poor fit] | 
39 | Cc1csc2c(SCC(=O)NNC(=O)C(Cl)Cl)ncnc12 | 11.2 µM [rising, partial curve, poor fit] | 
40 | O=C(Oc1ccc2c(c1)C(=O)c1ccccc1CO2)c1ccccc1 | 0.92 µM [falling, partial curve, poor fit] | 
41 | Fc1ccc2[nH]c3c(c2c1)CN(C(=S)NCc1ccccc1)CC3 | 20 µM [falling, single point] | 
42 | C/C(=N\NC(=O)COc1ccc(C)cc1C(C)C)c1cc2ccccc2o1 | 20.6 µM [falling, single point] | 

Row | Structure (SMILES) | AC50 [1] | AC50 [2]
43 | Cc1c(/C=N/N=C2\CCC3C4CCc5cc(O)ccc5C4CCC23C)cnn1C (configuration not stated) | 32.6 µM [rising, single point] | 
44 | Cc1ccccc1NC(=O)Nc1ccccc1C(N)=O | 2.51 µM [falling, partial curve, poor fit] | 
45 | N#C/C(=C/c1ccc(OCc2ccc(C(=O)O)cc2)cc1)C(=O)Nc1ccccc1 | 35.5 µM [falling, partial curve, poor fit] | 
46 | CCOC(=O)N1CCN(S(=O)(=O)c2ccc(F)c(C(=O)Nc3cc(C)cc(C)c3)c2)CC1 | 20.6 µM [falling, partial curve] | 
47 | C=CC[C@@H](Cc1ccc(F)cc1)C(=O)OC[C@H]1CCCN1C(=O)[C@@H](CC=C)CC(=O)N[C@H](CO)Cc1ccccc1 | 20.6 µM [falling, single point] | 
48 | COc1ccc(CN2CCN(C(=O)c3cc(C4CC4)nn3-c3ccccc3)CC2)cc1F | 29.1 µM [falling, single point] | 
49 | O=C(N/N=C\c1ccc(O)c([N+](=O)[O-])c1)C1COc2ccccc2O1 (configuration not stated) | 22.4 µM [falling, single point] | 4.47 µM [rising, full curve, poor fit]
50 | CCCCOC(=O)c1ccc(NC(=O)c2ccccc2OC)cc1 | 20.6 µM [falling, single point] | 
51 | CC(C)(C)NC(=O)c1ccc2c(c1)N(CC(=O)N1CCCCC1)C(=O)C(C)(C)O2 | 3.16 µM [falling, full curve, poor fit] | 
52 | Cn1c(CCN2CCCCCC2)nc2cc(NC(=O)Nc3ccccc3)ccc21 | 11.2 µM [falling, partial curve, poor fit] | 
53 | CCOC(=O)c1c(-c2ccccc2)oc2cc(Br)c(O)c(C=O)c12 | 10 µM [rising, partial curve] | 
54 | O=C(Nc1ccc(S(=O)(=O)N2CCCC2)cc1)c1cccs1 | 35.5 µM [falling, single point] | 
55 | O=C(Nc1ccc2c(c1)OCCO2)C1c2ccccc2C(=O)N2CCc3ccccc3C12 (configuration not stated) | 1.84 µM [rising, full curve, poor fit] | 
56 | O=C(NNC(=S)Nc1ccc(F)cc1)c1ccccc1OC(F)F | 16.4 µM [falling, partial curve, poor fit] | 
57 | CCOC(=O)c1cc(C)sc1NC(=O)C(c1ccccc1)c1ccccc1 | 5.8 µM [rising, full curve, poor fit] | 
58 | CCc1ccc(NC(=O)CSc2nnc(-c3n[nH]c4ccccc34)n2-c2ccccc2)cc1 | 23.1 µM [rising, single point] | 
59 | COc1cc(C(C)=O)ccc1COc1ccc(C(=O)OCC(N)=O)cc1OC | 20.6 µM [rising, single point] | 
60 | COc1ccc(CNc2ccccc2)cc1Br | 14.6 µM [rising, partial curve] | 
61 | COc1cccc(C(=O)c2c[nH]c(C(=O)NCc3ccco3)c2)c1 | 18.4 µM [falling, partial curve, poor fit] | 
62 | O=C(c1ccc2c(c1)OCCO2)C1CCN(C(=O)Nc2ccccc2F)CC1 | 22.4 µM [falling, single point] | 
63 | CCc1ccc(CCC(=O)Nc2ncc(Cc3ccccc3Cl)s2)o1 | 9.2 µM [rising, single point] | 5.8 µM [falling, full curve]
